PubChem BioAssay AID686943 | Drosophila RNAi Screening Center – 2013

Screen: 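Fly genes whose loss alters ERK activation after insulin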 (primary screen)
System: Drosophila S2R+ haemocyte-like cells expressing YFP-tagged ERK (Rolled)
Reagent: long dsRNA against Drosophila genes
Conditions: insulin stimulation versus unstimulated cells; dose and duration not given
Read-out: 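Antibody staining for doubly phosphorylated ERK divided by ERK-YFP signal, as plate z-scores, in insulin-treated and untreated cells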
Direction: replicate 1, z-score of dpERK with insulin and replicate 2, z-score of dpERK with insulin: higher = more active ERK per ERK-YFP after insulin; replicate 1, z-score of dpERK under basal conditions: higher = more basal active ERK per ERK-YFP; replicate 1, z-score of ERK-YFP with insulin: higher = more YFP-tagged ERK signal
In all, the deposit lists about 23,000 reagents; below is a random part of those with a known target gene and a result. 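Extra replicates exist only for a retested subset of genes; insulin dose and duration not given; both raised and lowered dpERK matter.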 The numbers tell different reagents against one gene apart. Names joined by + are all predicted targets of the reagent. Reagent sequences are not shown. Not given: the amount of reagent, the time to read-out.

gene knocked down	reagent	replicate 1, z-score of dpERK with insulin	replicate 2, z-score of dpERK with insulin	replicate 1, z-score of dpERK under basal conditions	replicate 1, z-score of ERK-YFP with insulin
Alp11 (GeneID 32496)	1	-0.32	-0.4	-0.45	-0.06
eEF1gamma (GeneID 44791)	1	-1.45	0	-0.73	-3.94
Ser7 (GeneID 31917)	1	-0.65	-0.43	0.29	0.16
CG1663 (GeneID 36012)	1	0.97	0.62	-0.22	0
CG1663 (GeneID 36012)	2	-0.69	0.09	0.48	0.17
Rpn3 (GeneID 35176)	1	-0.73	-3.59	-3.29	0.21
fkh (GeneID 43383)	1	-0.06	0	-0.69	0.17
CG17929 (GeneID 41978)	1	0.03	-0.13	-0.36	-0.2
Glut4EF (GeneID 41217)	1	-2.41	-2.69	-3.42	1.99
Glut4EF (GeneID 41217)	2	1.38	0.36	0.03	-0.62
Glut4EF (GeneID 41217)	3	2.15	1.01	0.43	-0.98
Glut4EF (GeneID 41217)	4	0.4	-0.46	0.35	-0.87
Glut4EF (GeneID 41217)	5	-1.24	-0.86	-0.58	0.45
CR43105 (GeneID 12798480)	1	-1.62	-1.45	-0.89	-0.65
CG32188 (GeneID 317901)	1	1.24	2.05	0.74	1.46
Eps-15 (GeneID 37961)	1	0.21	-0.24	-0.93	0.9
Atat (GeneID 39086)	1	-0.1	-0.08	-0.89	0.17
CG3216 (GeneID 37376)	1	1.52	0.56	0.23	-0.68
Cpr49Ad (GeneID 36349)	1	1.18	0.37	1.18	-0.23
CG2150 (GeneID 43745)	1	-1.98	0.11	-0.37	-0.46
ytr (GeneID 47457)	1	0.47	0.32	0.14	-0.65
ytr (GeneID 47457)	2	0.73	0.61	-0.4	-0.17
Lcp4 (GeneID 35820)	1	-0.22	0.03	0.5	0.67
cpa (GeneID 37387)	1	0.13	-0.22	-0.3	1.03
CG15458 (GeneID 50124)	1	-0.87	0.27	-0.13	0.1
Muc26B (GeneID 50424)	1	-0.14	0.55	-0.13	0.02
CG14837 (GeneID 38849)	1	-0.7	-0.43	-0.77	0.06
Ir56a (GeneID 246471)	1	-0.25	0.77	1.84	0.41
PIG-H + Kmn2	1	-0.29	-1.82	-2.1	-0.58
CG42741 (GeneID 37654)	1	-0.18	-0.24	0.73	0.24
CG42741 (GeneID 37654)	2	-0.37	-0.28	0.32	0.43
CG34296 (GeneID 5740662)	1	-0.14	-0.24	-0.29	0.21
mRpL15 (GeneID 40261)	1	0.21	-0.36	0.27	1.44
Cyp312a1 (GeneID 40005)	1	-1.09	-0.52	0.35	0.38
Claspin (GeneID 326205)	1	-0.89	-0.46	-1.37	1.04
Prosbeta2R1 (GeneID 31511)	1	0.63	0.58	-0.7	0.37
wrapper (GeneID 37555)	1	0.14	-3.03	0.19	0.12
Grx1t (GeneID 37483)	1	-0.61	-0.52	-1.37	0.12
sav (GeneID 252554)	1	0.62	-0.25	-0.71	0.13
sav (GeneID 252554)	2	-0.03	-0.11	-0.05	0.36
GstE6 (GeneID 37111)	1	0.21	0.34	-0.46	0.28
Daao2 (GeneID 33955)	1	0.26	-0.28	-0.12	0.85
CG12818 (GeneID 41261)	1	0.02	0.52	0.51	-0.34
CG13114 (GeneID 34272)	1	0.09	0.3	-0.09	-0.68
CG13474 (GeneID 39600)	1	-2.56	-1.1	-0.32	0.46
Glt (GeneID 34193)	1	0.58	0.09	-0.64	-0.7
CG31221 (GeneID 42325)	1	-1.28	-0.87	-1.08	0.16
CG31221 (GeneID 42325)	2	0.49	0	-0.27	-0.08
rdgA (GeneID 31826)	1	0.44	0.26	0.95	-0.18
rdgA (GeneID 31826)	2	0.21	0	0.24	0.88
rdgA (GeneID 31826)	3	0.47	0.27	-0.33	-0.34
CG15717 (GeneID 32262)	1	-0.42	-0.16	-0.3	0.53
CG4998 (GeneID 39808)	1	0.33	0.68	0.54	-0.27
CG4998 (GeneID 39808)	2	0.54	0.83	-0.57	0.4
CG13502 (GeneID 37518)	1	0.13	0.32	0.21	0.88
Kap-alpha3 (GeneID 41158)	1	-0.95	-0.69	-0.35	0.02
Zip88E (GeneID 41847)	1	0.08	0.39	0.73	0.44

Ordered by “replicate 1, z-score of dpERK under basal conditions” (low to high): some entries from above.
gene knocked down	reagent	replicate 1, z-score of dpERK with insulin	replicate 2, z-score of dpERK with insulin	replicate 1, z-score of dpERK under basal conditions	replicate 1, z-score of ERK-YFP with insulin
Grx1t (GeneID 37483)	1	-0.61	-0.52	-1.37	0.12
sav (GeneID 252554)	1	0.62	-0.25	-0.71	0.13
GstE6 (GeneID 37111)	1	0.21	0.34	-0.46	0.28
CG13474 (GeneID 39600)	1	-2.56	-1.1	-0.32	0.46
Daao2 (GeneID 33955)	1	0.26	-0.28	-0.12	0.85
CG13114 (GeneID 34272)	1	0.09	0.3	-0.09	-0.68
sav (GeneID 252554)	2	-0.03	-0.11	-0.05	0.36
CG12818 (GeneID 41261)	1	0.02	0.52	0.51	-0.34
